Laboratory results as given in publication PMC8761633.
These are yes or no findings as the source states them, for the method shown. Binding seen in cells or lysates may run through a third protein. Some results given as binding are weak or reduced against the parent protein; the word gives no strength. Sequences can lack the tags named with a protein.

Molecular target: T1, FLAG-tagged fruitfly Drosha (fruitfly (Drosophila melanogaster)) (UniProt Q7KNF1)
T1 sequence: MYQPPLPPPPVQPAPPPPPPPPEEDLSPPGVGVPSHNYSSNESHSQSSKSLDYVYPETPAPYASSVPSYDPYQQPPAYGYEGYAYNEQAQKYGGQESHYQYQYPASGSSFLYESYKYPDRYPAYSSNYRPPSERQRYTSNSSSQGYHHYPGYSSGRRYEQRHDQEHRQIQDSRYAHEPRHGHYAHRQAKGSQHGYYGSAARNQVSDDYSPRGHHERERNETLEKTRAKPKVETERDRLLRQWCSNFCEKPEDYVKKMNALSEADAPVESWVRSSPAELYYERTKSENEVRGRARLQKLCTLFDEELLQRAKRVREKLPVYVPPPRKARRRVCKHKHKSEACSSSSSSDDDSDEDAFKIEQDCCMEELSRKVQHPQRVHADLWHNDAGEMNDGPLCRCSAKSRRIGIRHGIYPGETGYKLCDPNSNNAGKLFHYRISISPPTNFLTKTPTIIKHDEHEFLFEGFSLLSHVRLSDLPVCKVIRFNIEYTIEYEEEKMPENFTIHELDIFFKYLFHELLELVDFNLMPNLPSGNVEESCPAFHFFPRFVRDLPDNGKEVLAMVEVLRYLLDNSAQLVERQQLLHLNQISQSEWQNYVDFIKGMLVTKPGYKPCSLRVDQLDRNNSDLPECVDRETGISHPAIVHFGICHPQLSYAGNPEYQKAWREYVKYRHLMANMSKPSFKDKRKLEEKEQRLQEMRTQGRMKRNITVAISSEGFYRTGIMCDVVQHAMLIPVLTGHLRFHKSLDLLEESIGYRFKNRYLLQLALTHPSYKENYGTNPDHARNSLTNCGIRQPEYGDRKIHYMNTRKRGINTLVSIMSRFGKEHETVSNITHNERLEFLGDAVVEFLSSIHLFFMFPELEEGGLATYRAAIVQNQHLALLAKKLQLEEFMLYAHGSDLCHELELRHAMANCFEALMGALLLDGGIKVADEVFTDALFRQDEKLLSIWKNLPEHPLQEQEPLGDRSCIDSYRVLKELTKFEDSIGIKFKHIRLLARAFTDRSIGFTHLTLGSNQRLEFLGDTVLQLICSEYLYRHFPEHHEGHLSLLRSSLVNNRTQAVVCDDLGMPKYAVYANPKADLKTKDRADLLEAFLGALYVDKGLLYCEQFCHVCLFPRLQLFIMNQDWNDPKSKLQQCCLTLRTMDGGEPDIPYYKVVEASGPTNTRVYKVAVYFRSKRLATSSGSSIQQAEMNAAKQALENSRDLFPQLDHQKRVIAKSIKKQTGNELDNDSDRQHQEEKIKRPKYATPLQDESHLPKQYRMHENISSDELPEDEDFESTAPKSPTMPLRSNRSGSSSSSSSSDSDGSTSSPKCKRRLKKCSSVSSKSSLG
Assay: co-IP; 293T cells co-transfected with FLAG-Drosha and Myc-DGCR8; immunoprecipitation with an anti-FLAG antibody; proteins detected by gel electrophoresis and Coomassie staining

- binding: binds
B1: Myc-tagged fruitfly DGCR8 (Pasha) (protein, UniProt Q9V9V7 1-642)
chain: MAEKPLADCPDSGQVRKRPRLEDEEQELKVAGFSLSAIEEMRRTRDNELQNEPMDQQLRQFQVLDEVGSGSDEDDESDNASEQQGGRYGEGGDEEEEAADGDGEEYDSSEFDDDEIENLLDEKLPEELRESKQPKYEQRFKTVLEEKRLNHFEVLPEGWVQVTHNSGMPLFLHRKTRVCCASRPYFLGTGSARKHAVPLGAIPCLNYRRALEEESEVEQQKTDGAPPVAVCPMAGASALPAEAMDVEGKENNEGSTDSKTQPDGITALMPAAKIVTVNENTQKESITPEQLNTYCQKLFKFKVIRVLRFRSWNARRKFTKNRKHIKNIQRPTLPDGTKLIKFPILANAGEGSTNPRGRKEWIMNPNGKSFVCILHEYVQHALKTQPTYEFKELQNAATPYSATVSVNNLKYGTGYGTSKKQAKSEAARETLEILIPDVKDKITGNNKDQKSGTAKKAQSDLSVFDDIRIEDPRVTEFCNKTTEPSPNAILLTCLQRNYGSDVQISQEINRTANNKNEFTMTVGKHTAKVVCKNKREGKQLASQAILQILHPHIQTWGSLLRLYGNNSIKTFKEKKLEEQEITVLQSKAAVNQPNYAILDKLKSEMLKLCAKQESVLTMGTFVPPSDVDLPTSSGSNLNNVEL
